For some assays here: At least one result comes from cells or an extract, where the contact may be indirect. For some assays here: Construct, isoform or probe ends are uncertain for at least one entry.
How the values were obtained:
[1] = biological target: LAR protein (PTPRF, receptor-type protein tyrosine phosphatase F), endogenous on human cell lines (Homo sapiens) (UniProt P10586); test: activity in cells; settings: 2'-F on all pyrimidines, 2'-OH purines; HUVEC endothelial tube formation on Matrigel, 16 h; inhibition, target LAR presumed; protein on the cell surface; dose not given here
[2] = biological target: LAR protein (PTPRF, receptor-type protein tyrosine phosphatase F), endogenous on human cell lines (Homo sapiens) (UniProt P10586); test: flow cytometry; settings: 2'-F on all pyrimidines, 2'-OH purines; MCF-7 cells, 5 nM, 30 min; protein on the cell surface; label: radiolabel, biotin or Alexa Fluor 647/680
[3] = biological target: LAR protein (PTPRF, receptor-type protein tyrosine phosphatase F), endogenous on human cell lines (Homo sapiens) (UniProt P10586); test: binding assay; settings: 2'-F on all pyrimidines, 2'-OH purines; UV crosslinking on HEK293-KDR cells, 25 nM, 37 C 15 min; band of LAR size; protein on the cell surface; label: radiolabel, biotin or Alexa Fluor 647/680
[4] = biological target: LAR protein (PTPRF), longest isoform, overexpressed in transfected HEK293 (Homo sapiens) (UniProt P10586); test: binding assay; settings: 2'-F on all pyrimidines, 2'-OH purines; radiolabeled aptamer on LAR-transfected HEK293, 15 min; 2x at 5 nM, 5x at 50 nM; protein on the cell surface; protein details: expression plasmid for the longest isoform; label: radiolabel, biotin or Alexa Fluor 647/680
[5] = biological target: LAR protein (PTPRF, receptor-type protein tyrosine phosphatase F), endogenous on human cell lines (Homo sapiens) (UniProt P10586); test: pull-down; settings: 2'-F on all pyrimidines, 2'-OH purines; biotinylated aptamer on MCF-7 cells, streptavidin beads, BSA competitor, LAR identified by mass spectrometry; protein on the cell surface; label: radiolabel, biotin or Alexa Fluor 647/680

Protein sequences, listed by entry. Tags and fused reporters are not part of them. Residues count along the entry.
UniProt P10586, 30-1907: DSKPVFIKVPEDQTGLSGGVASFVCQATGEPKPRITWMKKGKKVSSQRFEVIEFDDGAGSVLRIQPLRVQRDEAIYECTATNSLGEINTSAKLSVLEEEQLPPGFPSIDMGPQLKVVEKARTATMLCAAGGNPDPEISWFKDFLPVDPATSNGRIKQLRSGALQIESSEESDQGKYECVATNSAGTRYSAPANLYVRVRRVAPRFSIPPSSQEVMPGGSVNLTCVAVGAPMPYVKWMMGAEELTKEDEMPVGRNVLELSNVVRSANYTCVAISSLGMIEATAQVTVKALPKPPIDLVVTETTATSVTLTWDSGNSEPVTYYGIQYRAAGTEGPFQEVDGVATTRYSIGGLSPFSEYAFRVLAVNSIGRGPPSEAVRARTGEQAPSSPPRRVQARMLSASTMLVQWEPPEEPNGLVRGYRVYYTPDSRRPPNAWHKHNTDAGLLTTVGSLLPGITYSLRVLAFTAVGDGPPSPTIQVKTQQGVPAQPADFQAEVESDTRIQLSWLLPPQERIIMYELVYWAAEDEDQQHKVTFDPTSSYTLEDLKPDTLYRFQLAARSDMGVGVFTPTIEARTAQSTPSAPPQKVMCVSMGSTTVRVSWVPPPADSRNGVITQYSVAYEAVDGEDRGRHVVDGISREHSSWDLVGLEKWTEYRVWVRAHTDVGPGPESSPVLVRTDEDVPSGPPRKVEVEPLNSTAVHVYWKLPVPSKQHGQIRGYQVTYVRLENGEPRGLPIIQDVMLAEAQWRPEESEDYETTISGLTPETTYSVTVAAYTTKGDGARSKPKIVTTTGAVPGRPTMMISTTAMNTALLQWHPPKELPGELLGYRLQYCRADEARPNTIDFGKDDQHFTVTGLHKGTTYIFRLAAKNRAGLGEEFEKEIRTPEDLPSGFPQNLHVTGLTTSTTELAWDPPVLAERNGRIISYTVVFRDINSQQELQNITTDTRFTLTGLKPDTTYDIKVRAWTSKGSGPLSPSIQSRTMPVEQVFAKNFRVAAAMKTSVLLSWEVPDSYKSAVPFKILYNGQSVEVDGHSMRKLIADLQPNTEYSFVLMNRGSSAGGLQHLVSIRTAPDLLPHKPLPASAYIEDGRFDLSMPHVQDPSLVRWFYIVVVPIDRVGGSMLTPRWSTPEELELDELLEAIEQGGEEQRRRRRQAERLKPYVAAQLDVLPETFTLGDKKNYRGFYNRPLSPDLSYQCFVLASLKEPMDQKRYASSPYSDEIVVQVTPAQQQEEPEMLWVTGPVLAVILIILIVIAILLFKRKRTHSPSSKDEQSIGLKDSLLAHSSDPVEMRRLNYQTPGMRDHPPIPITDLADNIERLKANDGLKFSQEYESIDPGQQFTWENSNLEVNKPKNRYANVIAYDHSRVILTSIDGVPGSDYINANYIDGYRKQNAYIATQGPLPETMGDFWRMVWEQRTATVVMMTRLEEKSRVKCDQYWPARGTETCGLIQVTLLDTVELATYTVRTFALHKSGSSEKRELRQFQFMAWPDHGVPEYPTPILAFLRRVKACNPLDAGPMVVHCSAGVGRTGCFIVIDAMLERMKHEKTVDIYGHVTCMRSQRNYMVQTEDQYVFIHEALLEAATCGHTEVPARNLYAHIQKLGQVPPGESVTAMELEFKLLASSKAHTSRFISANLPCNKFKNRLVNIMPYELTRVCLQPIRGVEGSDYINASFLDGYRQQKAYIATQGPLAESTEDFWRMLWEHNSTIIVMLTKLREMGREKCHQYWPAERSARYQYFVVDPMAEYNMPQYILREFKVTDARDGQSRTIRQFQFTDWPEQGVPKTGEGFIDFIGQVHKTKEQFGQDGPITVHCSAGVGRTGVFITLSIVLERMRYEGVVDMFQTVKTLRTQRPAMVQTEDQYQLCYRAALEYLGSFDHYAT

GGGAGAUGCUCUGUCAGACUACGACUGUCCCAGUAUGACGCGACUGCUUAGGUGGGAUGUUUCCCAUGCCUCGACUGGCUGGCAGGUUGAUGACAAG [V8 aptamer]
functional effect of the aptamer (tubes per node (control 2)) [1]: 0.72 | binding result [2]: binds | binding result [3]: binds | binding result [4]: binds | binding result [5]: binds

— patent US20130266516
